Source: the supplement of paper PMC7666118
Some of the results follow.

Sequences of proteins named here, by UniProt entry; tags and fusion partners are left off. A change or cut given only in a name is not applied to a line headed by its entry.
UniProt Q5T8I3: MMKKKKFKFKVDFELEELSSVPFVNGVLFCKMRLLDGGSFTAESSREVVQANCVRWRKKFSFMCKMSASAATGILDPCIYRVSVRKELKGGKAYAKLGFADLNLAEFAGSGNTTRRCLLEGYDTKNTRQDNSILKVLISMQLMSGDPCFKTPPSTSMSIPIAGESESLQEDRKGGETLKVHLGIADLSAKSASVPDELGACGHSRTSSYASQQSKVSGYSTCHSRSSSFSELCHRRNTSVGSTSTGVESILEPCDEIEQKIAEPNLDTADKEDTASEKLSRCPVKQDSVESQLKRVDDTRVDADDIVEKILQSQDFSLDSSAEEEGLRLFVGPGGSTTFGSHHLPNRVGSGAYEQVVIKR
UniProt P22102: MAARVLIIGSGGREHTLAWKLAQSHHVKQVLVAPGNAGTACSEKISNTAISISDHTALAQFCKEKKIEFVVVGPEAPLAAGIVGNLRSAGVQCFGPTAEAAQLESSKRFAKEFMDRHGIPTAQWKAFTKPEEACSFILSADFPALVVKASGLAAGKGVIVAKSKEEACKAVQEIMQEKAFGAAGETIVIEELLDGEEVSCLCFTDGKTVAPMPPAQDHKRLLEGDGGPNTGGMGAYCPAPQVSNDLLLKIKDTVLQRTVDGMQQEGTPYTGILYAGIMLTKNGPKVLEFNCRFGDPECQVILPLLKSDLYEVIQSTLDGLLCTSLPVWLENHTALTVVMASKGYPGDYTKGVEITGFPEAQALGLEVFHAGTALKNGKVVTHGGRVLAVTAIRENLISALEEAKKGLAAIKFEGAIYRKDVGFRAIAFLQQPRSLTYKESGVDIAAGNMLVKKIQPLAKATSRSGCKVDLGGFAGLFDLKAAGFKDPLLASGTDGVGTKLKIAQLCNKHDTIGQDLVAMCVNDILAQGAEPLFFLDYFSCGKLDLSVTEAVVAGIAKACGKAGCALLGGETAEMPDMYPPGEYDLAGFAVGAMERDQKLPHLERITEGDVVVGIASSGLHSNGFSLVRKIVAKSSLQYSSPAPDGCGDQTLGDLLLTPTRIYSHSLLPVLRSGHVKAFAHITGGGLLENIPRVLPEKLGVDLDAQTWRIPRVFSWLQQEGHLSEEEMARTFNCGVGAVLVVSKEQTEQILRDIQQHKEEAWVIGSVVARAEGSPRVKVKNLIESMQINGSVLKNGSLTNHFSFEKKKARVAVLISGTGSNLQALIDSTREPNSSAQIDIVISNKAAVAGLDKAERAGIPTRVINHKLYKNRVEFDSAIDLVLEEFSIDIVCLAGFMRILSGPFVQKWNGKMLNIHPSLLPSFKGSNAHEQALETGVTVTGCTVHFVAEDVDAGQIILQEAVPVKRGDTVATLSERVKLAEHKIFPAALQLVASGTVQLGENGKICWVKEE
UniProt Q9UKT5: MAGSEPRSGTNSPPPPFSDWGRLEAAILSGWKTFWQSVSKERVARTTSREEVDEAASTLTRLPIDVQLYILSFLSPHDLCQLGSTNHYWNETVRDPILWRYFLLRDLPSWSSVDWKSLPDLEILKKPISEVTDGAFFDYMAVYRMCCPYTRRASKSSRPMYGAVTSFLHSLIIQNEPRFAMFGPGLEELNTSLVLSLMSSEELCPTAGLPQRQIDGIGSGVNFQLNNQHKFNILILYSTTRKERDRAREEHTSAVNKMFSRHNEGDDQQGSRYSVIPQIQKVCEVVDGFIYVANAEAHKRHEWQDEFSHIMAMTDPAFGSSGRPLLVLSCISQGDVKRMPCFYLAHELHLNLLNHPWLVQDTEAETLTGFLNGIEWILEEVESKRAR
UniProt Q8N1G2: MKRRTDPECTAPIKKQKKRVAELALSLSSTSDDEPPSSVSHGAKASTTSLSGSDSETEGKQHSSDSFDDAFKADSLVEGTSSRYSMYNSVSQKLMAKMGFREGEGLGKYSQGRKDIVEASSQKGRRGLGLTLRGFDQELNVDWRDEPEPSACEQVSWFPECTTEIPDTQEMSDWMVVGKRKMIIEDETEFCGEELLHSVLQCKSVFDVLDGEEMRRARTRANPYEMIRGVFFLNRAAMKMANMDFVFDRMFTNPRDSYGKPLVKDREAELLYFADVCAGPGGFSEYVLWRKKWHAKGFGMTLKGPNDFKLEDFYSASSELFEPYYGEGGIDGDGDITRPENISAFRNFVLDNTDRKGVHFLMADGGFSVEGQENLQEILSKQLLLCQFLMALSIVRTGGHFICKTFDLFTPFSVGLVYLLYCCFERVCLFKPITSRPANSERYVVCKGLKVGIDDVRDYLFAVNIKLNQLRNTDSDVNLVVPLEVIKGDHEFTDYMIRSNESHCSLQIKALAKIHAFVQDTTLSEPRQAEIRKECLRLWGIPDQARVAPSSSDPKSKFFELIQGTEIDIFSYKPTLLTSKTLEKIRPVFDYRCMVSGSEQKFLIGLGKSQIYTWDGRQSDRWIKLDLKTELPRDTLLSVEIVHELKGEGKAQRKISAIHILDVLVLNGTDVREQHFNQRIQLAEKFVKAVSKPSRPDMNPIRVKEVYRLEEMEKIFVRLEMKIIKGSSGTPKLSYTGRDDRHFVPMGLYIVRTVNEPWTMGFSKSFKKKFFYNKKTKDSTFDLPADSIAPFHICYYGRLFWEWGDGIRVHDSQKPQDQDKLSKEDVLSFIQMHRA
UniProt Q96IG2: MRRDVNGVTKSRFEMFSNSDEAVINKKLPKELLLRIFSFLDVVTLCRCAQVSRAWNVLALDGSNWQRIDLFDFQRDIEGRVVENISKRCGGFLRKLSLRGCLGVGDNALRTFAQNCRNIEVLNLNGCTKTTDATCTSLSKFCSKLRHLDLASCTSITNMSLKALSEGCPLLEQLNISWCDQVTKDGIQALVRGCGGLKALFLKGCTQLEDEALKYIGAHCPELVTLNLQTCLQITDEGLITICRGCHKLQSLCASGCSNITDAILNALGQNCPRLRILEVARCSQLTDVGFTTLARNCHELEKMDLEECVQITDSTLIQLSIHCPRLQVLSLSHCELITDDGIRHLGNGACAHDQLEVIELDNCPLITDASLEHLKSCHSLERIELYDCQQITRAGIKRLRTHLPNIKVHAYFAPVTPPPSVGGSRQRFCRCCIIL
UniProt P04066: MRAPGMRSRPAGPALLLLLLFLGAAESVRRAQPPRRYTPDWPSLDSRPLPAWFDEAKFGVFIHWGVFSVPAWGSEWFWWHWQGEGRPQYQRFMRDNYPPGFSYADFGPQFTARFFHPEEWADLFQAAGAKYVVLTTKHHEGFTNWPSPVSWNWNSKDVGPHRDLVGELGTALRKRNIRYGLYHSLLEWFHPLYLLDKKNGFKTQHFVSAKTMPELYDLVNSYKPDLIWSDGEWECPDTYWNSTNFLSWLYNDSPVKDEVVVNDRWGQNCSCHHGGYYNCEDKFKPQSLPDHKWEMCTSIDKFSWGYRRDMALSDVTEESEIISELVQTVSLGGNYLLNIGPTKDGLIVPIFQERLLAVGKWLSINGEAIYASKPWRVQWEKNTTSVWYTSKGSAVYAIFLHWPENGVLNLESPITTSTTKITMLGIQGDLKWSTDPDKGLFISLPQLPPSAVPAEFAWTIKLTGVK
UniProt Q8IYI6: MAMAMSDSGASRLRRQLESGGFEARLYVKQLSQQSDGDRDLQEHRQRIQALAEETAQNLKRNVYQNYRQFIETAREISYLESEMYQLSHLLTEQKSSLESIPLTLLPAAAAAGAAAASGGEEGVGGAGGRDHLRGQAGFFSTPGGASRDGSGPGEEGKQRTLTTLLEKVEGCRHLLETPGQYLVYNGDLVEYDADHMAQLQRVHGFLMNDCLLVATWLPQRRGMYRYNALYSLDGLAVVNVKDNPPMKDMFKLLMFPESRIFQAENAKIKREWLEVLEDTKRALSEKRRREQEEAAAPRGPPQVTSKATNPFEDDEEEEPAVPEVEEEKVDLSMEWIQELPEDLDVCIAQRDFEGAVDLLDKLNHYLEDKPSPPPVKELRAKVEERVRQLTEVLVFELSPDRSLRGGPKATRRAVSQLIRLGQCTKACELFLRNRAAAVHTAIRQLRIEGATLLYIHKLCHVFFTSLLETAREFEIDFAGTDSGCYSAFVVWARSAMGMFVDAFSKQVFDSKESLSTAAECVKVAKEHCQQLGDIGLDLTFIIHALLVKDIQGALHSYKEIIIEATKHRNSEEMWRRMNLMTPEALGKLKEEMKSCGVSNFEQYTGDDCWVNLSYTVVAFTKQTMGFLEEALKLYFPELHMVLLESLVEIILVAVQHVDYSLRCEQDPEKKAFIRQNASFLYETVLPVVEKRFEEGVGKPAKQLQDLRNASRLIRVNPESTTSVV
UniProt P49789: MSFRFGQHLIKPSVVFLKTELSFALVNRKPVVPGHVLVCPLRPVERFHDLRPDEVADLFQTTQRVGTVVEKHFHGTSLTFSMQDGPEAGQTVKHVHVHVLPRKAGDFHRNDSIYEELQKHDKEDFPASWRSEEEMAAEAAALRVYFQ
UniProt Q9Y3D6: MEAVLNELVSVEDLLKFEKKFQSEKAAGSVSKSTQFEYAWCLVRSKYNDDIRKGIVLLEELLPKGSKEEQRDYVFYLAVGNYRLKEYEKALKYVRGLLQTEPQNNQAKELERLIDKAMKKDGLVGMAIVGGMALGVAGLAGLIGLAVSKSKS
UniProt Q9NY12: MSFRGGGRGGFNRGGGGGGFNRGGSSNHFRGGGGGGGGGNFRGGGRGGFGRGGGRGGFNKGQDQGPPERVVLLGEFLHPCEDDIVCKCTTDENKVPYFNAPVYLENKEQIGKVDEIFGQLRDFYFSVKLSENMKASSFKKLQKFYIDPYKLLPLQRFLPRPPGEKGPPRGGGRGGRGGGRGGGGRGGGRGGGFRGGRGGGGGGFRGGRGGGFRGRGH
UniProt Q9NZB2: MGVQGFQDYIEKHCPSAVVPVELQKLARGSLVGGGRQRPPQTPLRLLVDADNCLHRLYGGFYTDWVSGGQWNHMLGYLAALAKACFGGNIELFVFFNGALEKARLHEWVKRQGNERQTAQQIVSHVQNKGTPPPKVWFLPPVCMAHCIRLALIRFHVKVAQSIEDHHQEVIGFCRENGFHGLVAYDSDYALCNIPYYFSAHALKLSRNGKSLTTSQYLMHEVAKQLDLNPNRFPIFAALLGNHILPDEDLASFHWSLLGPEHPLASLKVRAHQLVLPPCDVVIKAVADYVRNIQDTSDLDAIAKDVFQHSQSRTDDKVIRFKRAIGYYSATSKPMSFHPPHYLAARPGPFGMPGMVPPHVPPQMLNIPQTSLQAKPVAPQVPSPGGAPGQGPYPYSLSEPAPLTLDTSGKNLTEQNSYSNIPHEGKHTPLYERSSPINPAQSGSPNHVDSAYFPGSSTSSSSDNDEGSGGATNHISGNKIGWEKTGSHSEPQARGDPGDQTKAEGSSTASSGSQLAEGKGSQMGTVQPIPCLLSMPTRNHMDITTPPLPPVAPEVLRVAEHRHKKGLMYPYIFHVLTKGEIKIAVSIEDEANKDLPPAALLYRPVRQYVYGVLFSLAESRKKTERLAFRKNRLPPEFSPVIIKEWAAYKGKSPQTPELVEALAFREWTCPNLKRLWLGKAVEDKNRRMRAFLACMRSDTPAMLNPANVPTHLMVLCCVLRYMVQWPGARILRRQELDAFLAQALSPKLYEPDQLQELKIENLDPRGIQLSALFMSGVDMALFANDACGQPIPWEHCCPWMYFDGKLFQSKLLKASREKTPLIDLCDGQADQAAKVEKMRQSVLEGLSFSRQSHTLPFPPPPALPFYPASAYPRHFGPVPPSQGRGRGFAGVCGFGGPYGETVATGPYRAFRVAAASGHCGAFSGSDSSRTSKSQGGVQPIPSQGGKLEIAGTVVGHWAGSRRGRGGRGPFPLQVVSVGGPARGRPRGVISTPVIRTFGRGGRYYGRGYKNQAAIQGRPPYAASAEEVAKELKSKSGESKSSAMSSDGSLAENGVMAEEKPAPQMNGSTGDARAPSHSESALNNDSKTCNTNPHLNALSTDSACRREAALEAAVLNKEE
UniProt Q9Y680: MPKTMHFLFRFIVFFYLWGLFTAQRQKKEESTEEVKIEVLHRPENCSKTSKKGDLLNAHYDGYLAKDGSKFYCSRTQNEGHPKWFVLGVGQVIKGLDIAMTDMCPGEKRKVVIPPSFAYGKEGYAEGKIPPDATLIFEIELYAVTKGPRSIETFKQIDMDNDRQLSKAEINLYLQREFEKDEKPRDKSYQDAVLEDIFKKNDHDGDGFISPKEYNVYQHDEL
UniProt Q7Z309: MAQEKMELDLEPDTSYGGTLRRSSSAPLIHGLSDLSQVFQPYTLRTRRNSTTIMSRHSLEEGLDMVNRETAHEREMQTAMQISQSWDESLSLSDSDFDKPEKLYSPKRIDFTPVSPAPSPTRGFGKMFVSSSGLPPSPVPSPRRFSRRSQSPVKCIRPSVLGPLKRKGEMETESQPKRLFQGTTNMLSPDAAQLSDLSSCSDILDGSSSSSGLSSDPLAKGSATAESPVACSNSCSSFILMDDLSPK
UniProt Q9BTL3: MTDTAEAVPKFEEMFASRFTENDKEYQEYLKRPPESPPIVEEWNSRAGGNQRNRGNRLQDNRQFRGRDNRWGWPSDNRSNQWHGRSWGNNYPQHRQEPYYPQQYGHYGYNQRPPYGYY

Compound: COc1ccc(Cn2ccc3ccc(C(=O)NO)cc32)cc1
Test: dose-dependent thermal stabilisation call (2D-TPP, DLPTP, 10% FDR) (binary (1 = stabilised)); higher = stabilised by the compound
Conditions: system: HL-60 intact cells; concentration range 0.04-10 µM

Row | Target | dose-dependent thermal stabilisation call
1 | FAM102B (UniProt Q5T8I3) | inactive: 0
2 | FAM98A (UniProt Q8NCA5) | inactive: 0
3 | FAM117B (UniProt Q6P1L5) | inactive: 0
4 | GART (UniProt P22102) | inactive: 0
5 | FBXO4 (UniProt Q9UKT5) | inactive: 0
6 | FTSJD2 (UniProt Q8N1G2) | inactive: 0
7 | FAT1 (UniProt Q14517) | inactive: 0
8 | GALNS (UniProt P34059) | inactive: 0
9 | FBXL20 (UniProt Q96IG2) | inactive: 0
10 | FBXW2 (UniProt Q9UKT8) | inactive: 0
11 | FUCA1 (UniProt P04066) | inactive: 0
12 | FUBP3 (UniProt Q96I24) | inactive: 0
13 | EXOC8 (UniProt Q8IYI6) | inactive: 0
14 | FBXW9 (UniProt Q5XUX1) | inactive: 0
15 | FXN (UniProt Q16595) | inactive: 0
16 | FHIT (UniProt P49789) | inactive: 0
17 | FGFR1OP (UniProt O95684) | inactive: 0
18 | FIS1 (UniProt Q9Y3D6) | inactive: 0
19 | GAR1 (UniProt Q9NY12) | inactive: 0
20 | FERMT3 (UniProt Q86UX7) | inactive: 0
21 | FAM120A (UniProt Q9NZB2) | inactive: 0
22 | ESPL1 (UniProt Q14674) | inactive: 0
23 | FLJ21865 | inactive: 0
24 | FLJ45032 | inactive: 0
25 | FAM134A (UniProt Q8NC44) | inactive: 0
26 | FKBP7 (UniProt Q9Y680) | inactive: 0
27 | FAM122B (UniProt Q7Z309) | inactive: 0
28 | FAM103A1 (UniProt Q9BTL3) | inactive: 0

Exported field by field: entries from further up
GALNS (UniProt P34059)
  dose-dependent thermal stabilisation call: inactive: 0
FBXL20 (UniProt Q96IG2)
  dose-dependent thermal stabilisation call: inactive: 0
